In paper PMC10611921:
For at least one entry, the source does not settle the construct or the ends of the probe. Weaker means in comparison with the reference protein, sequence or condition of that experiment.

Amino acid sequences for entries named in this document (tags omitted).
UniProt P25490, whole entry: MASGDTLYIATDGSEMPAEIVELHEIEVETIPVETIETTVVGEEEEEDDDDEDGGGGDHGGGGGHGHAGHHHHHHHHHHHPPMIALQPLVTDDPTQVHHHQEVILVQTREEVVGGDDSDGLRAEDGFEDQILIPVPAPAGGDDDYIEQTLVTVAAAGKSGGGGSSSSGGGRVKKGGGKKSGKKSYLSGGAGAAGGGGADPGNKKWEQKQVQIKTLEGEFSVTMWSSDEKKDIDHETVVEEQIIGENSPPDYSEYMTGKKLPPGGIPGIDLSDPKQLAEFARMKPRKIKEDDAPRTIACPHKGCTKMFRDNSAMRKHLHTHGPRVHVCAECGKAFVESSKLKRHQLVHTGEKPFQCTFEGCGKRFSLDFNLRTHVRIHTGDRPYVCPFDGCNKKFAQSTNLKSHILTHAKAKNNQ

Biological target: YY1 (UniProt P25490)
Experiment: EMSA
Details: faint non-specific band of large oligomers, lost as FOXP2 FHD rises, no complex on the small control gel (Figure 9B); EMSA: 0.5 uM DNA, 20% (v/v) of binding buffer (10 mM HEPES pH 7.5, 1 mM MgCl2, 100 mM KCl, 10% glycerol, 0.1 mg/ml BSA), protein from 100 mM NaCl, overnight at 4 C; recombinant protein; protein details: N-terminal His6

“TTTGATTGTTTACTTTGTTC (double strand) [CNTNAP2 DNA]”: binds more weakly.
